Binding data for 1 substance are collected here from paper PMC4708995.

The chains behind the UniProt entries cited, without tags or fusion partners.
UniProt Q06330: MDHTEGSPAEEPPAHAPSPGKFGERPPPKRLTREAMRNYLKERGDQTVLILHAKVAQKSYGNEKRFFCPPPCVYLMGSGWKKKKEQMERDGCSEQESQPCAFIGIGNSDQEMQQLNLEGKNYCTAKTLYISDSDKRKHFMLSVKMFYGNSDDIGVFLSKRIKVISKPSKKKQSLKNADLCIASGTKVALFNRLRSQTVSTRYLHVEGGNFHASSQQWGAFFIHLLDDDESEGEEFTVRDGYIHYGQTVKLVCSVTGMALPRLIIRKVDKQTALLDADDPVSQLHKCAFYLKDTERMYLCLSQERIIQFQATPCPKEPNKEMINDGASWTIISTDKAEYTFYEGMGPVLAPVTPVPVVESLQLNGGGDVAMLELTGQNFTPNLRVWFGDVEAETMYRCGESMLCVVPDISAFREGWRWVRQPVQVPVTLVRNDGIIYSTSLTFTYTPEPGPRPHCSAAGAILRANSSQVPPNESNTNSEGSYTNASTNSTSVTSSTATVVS
UniProt P03204: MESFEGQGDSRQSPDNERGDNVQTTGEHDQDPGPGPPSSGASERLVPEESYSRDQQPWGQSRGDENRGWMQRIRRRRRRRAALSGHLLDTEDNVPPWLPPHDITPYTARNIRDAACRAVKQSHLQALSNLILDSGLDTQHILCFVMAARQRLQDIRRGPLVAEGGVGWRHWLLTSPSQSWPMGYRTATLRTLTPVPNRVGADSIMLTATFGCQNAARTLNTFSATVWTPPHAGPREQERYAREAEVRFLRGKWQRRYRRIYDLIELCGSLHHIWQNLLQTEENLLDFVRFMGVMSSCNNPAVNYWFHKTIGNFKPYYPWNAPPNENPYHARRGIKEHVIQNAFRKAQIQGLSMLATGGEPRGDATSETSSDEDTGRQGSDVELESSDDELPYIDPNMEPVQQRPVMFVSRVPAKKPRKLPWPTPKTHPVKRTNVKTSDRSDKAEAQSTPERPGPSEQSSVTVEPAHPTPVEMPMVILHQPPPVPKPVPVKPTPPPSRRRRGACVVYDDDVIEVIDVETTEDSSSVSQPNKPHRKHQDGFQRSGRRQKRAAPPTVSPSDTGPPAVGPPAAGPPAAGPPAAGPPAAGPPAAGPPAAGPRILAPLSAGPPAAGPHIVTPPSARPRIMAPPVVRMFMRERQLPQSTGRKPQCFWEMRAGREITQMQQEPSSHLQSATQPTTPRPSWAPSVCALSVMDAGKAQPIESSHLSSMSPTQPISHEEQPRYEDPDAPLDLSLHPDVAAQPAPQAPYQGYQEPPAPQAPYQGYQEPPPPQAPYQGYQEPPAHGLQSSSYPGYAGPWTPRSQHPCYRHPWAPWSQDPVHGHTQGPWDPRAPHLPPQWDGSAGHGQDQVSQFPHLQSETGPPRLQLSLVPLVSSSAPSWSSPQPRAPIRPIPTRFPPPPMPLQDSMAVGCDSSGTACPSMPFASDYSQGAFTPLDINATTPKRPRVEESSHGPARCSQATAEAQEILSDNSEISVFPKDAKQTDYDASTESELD

These are yes or no findings as the source states them, for the method shown. Binding seen in cells or lysates may run through a third protein. Some results given as binding are weak or reduced against the parent protein; the word gives no strength.

This assay addresses RBPJ (human (endogenous in LCL)) (UniProt Q06330). The assay is described as follows: co-IP; RBPJ immunoprecipitated with rat monoclonal antibody 1F1 from protein extracts of 10^7 wild type EBNA3C or RBPJ BM EBNA3C LCLs, two hours at 4°C, protein G-Sepharose, washed four times in IP buffer; blots probed for EBNA3C (A10) or RBPJ (ab25949); isotype IgG control.

Take “Epstein-Barr virus nuclear antigen 3C (EBNA3C), wild type (from UniProt P03204 1-992)”: the binding entry is on record as “binds”.
